Data reported in publication PMC8056045.
No constants are given. Whether binding was seen depends on the method and setting. Some binding calls cover weakened binding; strength is not graded here. Blank lines part the entries; values can stand above or below the binder they belong to.

Assays:
Assay in all cases: two-hybrid; ProQuest two-hybrid system (Invitrogen) in yeast; bait in pDEST32 (GAL4 DNA-binding domain), prey in pDEST22 (GAL4 activation domain); 3-AT assay: growth on SD3- (Leu-/Trp-/His-) media with 0, 10, 20 and 40 mM 3-AT, 30°C, 2 days; criterion of interaction: a colony on SD3- media with 20 mM 3-AT
[1] = molecular target: T1, plant and prokaryotes conserved (PPC) domain of AHL3 (Arabidopsis thaliana) (UniProt Q9SB31)
T1 sequence: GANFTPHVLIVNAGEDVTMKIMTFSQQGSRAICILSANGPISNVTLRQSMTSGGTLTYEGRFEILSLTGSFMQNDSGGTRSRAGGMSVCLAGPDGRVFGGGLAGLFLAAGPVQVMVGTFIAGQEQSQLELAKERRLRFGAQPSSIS

[2] = molecular target: T2, plant and prokaryotes conserved (PPC) domain of AHL4 (Arabidopsis thaliana) (UniProt Q9FHM5)
T2 sequence: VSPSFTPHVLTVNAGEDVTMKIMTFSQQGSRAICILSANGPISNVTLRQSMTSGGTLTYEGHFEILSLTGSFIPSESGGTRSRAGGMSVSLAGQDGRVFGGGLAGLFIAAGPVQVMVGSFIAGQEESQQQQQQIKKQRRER

[3] = molecular target: T3, AT-HOOK MOTIF NUCLEAR LOCALIZED PROTEIN 3 (AHL3), full-length (Arabidopsis thaliana) (UniProt Q9SB31)
T3 sequence: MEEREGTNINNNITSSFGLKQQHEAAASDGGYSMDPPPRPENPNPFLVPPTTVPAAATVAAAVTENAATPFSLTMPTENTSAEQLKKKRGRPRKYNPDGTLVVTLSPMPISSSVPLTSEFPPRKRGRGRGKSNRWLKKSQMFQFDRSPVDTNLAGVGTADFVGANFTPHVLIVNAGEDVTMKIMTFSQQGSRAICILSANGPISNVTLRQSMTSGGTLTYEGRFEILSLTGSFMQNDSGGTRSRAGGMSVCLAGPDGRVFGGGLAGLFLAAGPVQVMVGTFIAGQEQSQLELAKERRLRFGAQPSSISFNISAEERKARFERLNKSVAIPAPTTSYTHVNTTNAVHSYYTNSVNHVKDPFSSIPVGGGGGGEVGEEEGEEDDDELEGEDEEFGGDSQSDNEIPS

binding [1]: binds
binding [2]: binds
B1: AT-HOOK MOTIF NUCLEAR LOCALIZED PROTEIN 3 (AHL3), full-length (protein, UniProt Q9SB31 1-404)
chain: T3 sequence

binding [3]: binds
binding [2]: binds
B2: AT-HOOK MOTIF NUCLEAR LOCALIZED PROTEIN 1 (AHL1) (protein, UniProt Q8VYJ2 1-356)
chain: MVLNMESTGEAVRSTTGNDGGITVVRSDAPSDFHVAQRSESSNQSPTSVTPPPPQPSSHHTAPPPLQISTVTTTTTTAAMEGISGGLMKKKRGRPRKYGPDGTVVALSPKPISSAPAPSHLPPPSSHVIDFSASEKRSKVKPTNSFNRTKYHHQVENLGEWAPCSVGGNFTPHIITVNTGEDVTMKIISFSQQGPRSICVLSANGVISSVTLRQPDSSGGTLTYEGRFEILSLSGSFMPNDSGGTRSRTGGMSVSLASPDGRVVGGGLAGLLVAASPVQVVVGSFLAGTDHQDQKPKKNKHDFMLSSPTAAIPISSAADHRTIHSVSSLPVNNNTWQTSLASDPRNKHTDINVNVT

binding [2]: binds
B3: AT-HOOK MOTIF NUCLEAR LOCALIZED PROTEIN 6 (AHL6) (protein, UniProt Q9LVB0 1-404)
chain: MEEKGEISPSGVVTVKGDEALVPRTEFQQNPSFLQFVSPTTVVTPLPPPPAPSSAPVPTTVTPGSATASTGSDPTKKKRGRPRKYAPDGSLNPRFLRPTLSPTPISSSIPLSGDYQWKRGKAQQQHQPLEFVKKSHKFEYGSPAPTPPLPGLSCYVGANFTTHQFTVNGGEDVTMKVMPYSQQGSRAICILSATGSISNVTLGQPTNAGGTLTYEGRFEILSLSGSFMPTENGGTKGRAGGMSISLAGPNGNIFGGGLAGMLIAAGPVQVVMGSFIVMHQAEQNQKKKPRVMEAFAPPQPQAPPQLQQQQPPTFTITTVNSTSPSVNTVEEQKPQAYGGGIVRPMAQMPSSFQNDNSTMNNFTPAYHGYGNMNTGTTHKEEHEDEDGGDDDDDSGDTRSQSHSG

binding [1]: binds
binding [2]: binds
B4: AT-HOOK MOTIF NUCLEAR LOCALIZED PROTEIN 4 (AHL4), full-length (protein, UniProt Q9FHM5 1-419)
chain: MEEREGTNINNIPTSFGLKQHETPLPPPGYPPRSENPNLFPVGQSSTSSAAAAVKPSENVAPPFSLTMPVENSSSELKKKRGRPRKYNPDGSLAVTLSPMPISSSVPLTSEFGSRKRGRGRGRGRGRGRGRGQGQGSREPNNNNNDNNWLKNPQMFEFNNNTPTSGGGGPAEIVSPSFTPHVLTVNAGEDVTMKIMTFSQQGSRAICILSANGPISNVTLRQSMTSGGTLTYEGHFEILSLTGSFIPSESGGTRSRAGGMSVSLAGQDGRVFGGGLAGLFIAAGPVQVMVGSFIAGQEESQQQQQQIKKQRRERLGIPTTTQASNISFGGSAEDPKARYGLNKPVVIQPPPVSAPPVSFSHEPSTNTVHGYYANNTANHIKDLFSSLPGEDREEDEDDLEGEDDEEFGGHSESDTEVPS

B5: AT-HOOK MOTIF NUCLEAR LOCALIZED PROTEIN 19 (AHL19) (protein, UniProt Q9SR17 1-315)
chain: MANPWWTGQVNLSGLETTPPGSSQLKKPDLHISMNMAMDSGHNNHHHHQEVDNNNNDDDRDNLSGDDHEPREGAVEAPTRRPRGRPAGSKNKPKPPIFVTRDSPNALKSHVMEIASGTDVIETLATFARRRQRGICILSGNGTVANVTLRQPSTAAVAAAPGGAAVLALQGRFEILSLTGSFLPGPAPPGSTGLTIYLAGGQGQVVGGSVVGPLMAAGPVMLIAATFSNATYERLPLEEEEAAERGGGGGSGGVVPGQLGGGGSPLSSGAGGGDGNQGLPVYNMPGNLVSNGGSGGGGQMSGQEAYGWAQARSGF
binding [2]: no binding

binding [2]: no binding
B6: AT-HOOK MOTIF NUCLEAR LOCALIZED PROTEIN 16 (AHL16) (protein, UniProt Q9SJG4 1-257)
chain: MAGGTALTPTSVGSKSVPMRNHEATERGNTNNNLRALPKAVQPVSSIEGEMAKRPRGRPAGSKNKPKPPIIVTHDSPNSLRANAVEISSGCDICETLSDFARRKQRGLCILSANGCVTNVTLRQPASSGAIVTLHGRYEILSLLGSILPPPAPLGITGLTIYLAGPQGQVVGGGVVGGLIASGPVVLMAASFMNAVFDRLPMDDDEAASMQNQQYYQNGRSRPLDDIHGLPQNLLTNGNSASDIYSWGPAQRVMSKP

binding [2]: binds
B7: AT-HOOK MOTIF NUCLEAR LOCALIZED PROTEIN 7 (AHL7) (protein, UniProt Q4V3E0 1-318)
chain: METSDRISPGGGIGAEVPSAYHMAPRPSDSPANQFMGLSLPPMEAPMPSSGEASGKKRRGRPRKYEANGAPLPSSSVPLVKKRVRGKLNGFDMKKMHKTIGFHSSGERFGVGGGVGGGVGSNFTPHVITVNTGEDITMRIISFSQQGPRAICILSANGVISNVTLRQPDSCGGTLTYEGRFEILSLSGSFMETENQGSKGRSGGMSVSLAGPDGRVVGGGVAGLLIAATPIQVVVGSFITSDQQDHQKPRKQRVEHAPAAVMSVPPPPSPPPPAASVFSPTNPDREQPPSSFGISSWTNGQDMPRNSATDINISLPVD

binding [2]: no binding
B8: AT-HOOK MOTIF NUCLEAR LOCALIZED PROTEIN 15 (AHL15) (protein, UniProt Q9M2S3 1-310)
chain: MANPWWVGNVAIGGVESPVTSSAPSLHHRNSNNNNPPTMTRSDPRLDHDFTTNNSGSPNTQTQSQEEQNSRDEQPAVEPGSGSGSTGRRPRGRPPGSKNKPKSPVVVTKESPNSLQSHVLEIATGADVAESLNAFARRRGRGVSVLSGSGLVTNVTLRQPAASGGVVSLRGQFEILSMCGAFLPTSGSPAAAAGLTIYLAGAQGQVVGGGVAGPLIASGPVIVIAATFCNATYERLPIEEEQQQEQPLQLEDGKKQKEENDDNESGNNGNEGSMQPPMYNMPPNFIPNGHQMAQHDVYWGGPPPRAPPSY

binding [2]: no binding
B9: AT-HOOK MOTIF NUCLEAR LOCALIZED PROTEIN 21 (AHL21) (protein, UniProt O82166 1-285)
chain: MAGLDLGTTSRYVHNVDGGGGGQFTTDNHHEDDGGAGGNHHHHHHNHNHHQGLDLIASNDNSGLGGGGGGGSGDLVMRRPRGRPAGSKNKPKPPVIVTRESANTLRAHILEVGSGCDVFECISTYARRRQRGICVLSGTGTVTNVSIRQPTAAGAVVTLRGTFEILSLSGSFLPPPAPPGATSLTIFLAGAQGQVVGGNVVGELMAAGPVMVMAASFTNVAYERLPLDEHEEHLQSGGGGGGGNMYSEATGGGGGLPFFNLPMSMPQIGVESWQGNHAGAGRAPF

binding [2]: no binding
B10: AT-HOOK MOTIF NUCLEAR LOCALIZED PROTEIN 20 (AHL20) (protein, UniProt Q8GWQ2 1-281)
chain: MANPWWTNQSGLAGMVDHSVSSGHHQNHHHQSLLTKGDLGIAMNQSQDNDQDEEDDPREGAVEVVNRRPRGRPPGSKNKPKAPIFVTRDSPNALRSHVLEISDGSDVADTIAHFSRRRQRGVCVLSGTGSVANVTLRQAAAPGGVVSLQGRFEILSLTGAFLPGPSPPGSTGLTVYLAGVQGQVVGGSVVGPLLAIGSVMVIAATFSNATYERLPMEEEEDGGGSRQIHGGGDSPPRIGSNLPDLSGMAGPGYNMPPHLIPNGAGQLGHEPYTWVHARPPY

binding [2]: no binding
B11: AT-HOOK MOTIF NUCLEAR LOCALIZED PROTEIN 2 (AHL2) (protein, UniProt O49658 1-334)
chain: METTGEVVKTTTGSDGGVTVVRSNAPSDFHMAPRSETSNTPPNSVAPPPPPPPQNSFTPSAAMDGFSSGPIKKRRGRPRKYGHDGAAVTLSPNPISSAAPTTSHVIDFSTTSEKRGKMKPATPTPSSFIRPKYQVENLGEWSPSSAAANFTPHIITVNAGEDVTKRIISFSQQGSLAICVLCANGVVSSVTLRQPDSSGGTLTYEGRFEILSLSGTFMPSDSDGTRSRTGGMSVSLASPDGRVVGGGVAGLLVAATPIQVVVGTFLGGTNQQEQTPKPHNHNFMSSPLMPTSSNVADHRTIRPMTSSLPISTWTPSFPSDSRHKHSHDFNITLT
